In the supplement of paper PMC10849652:
Some of the results follow.

Sequences of proteins named here, by UniProt entry; tags and fusion partners are left off. A change or cut given only in a name is not applied to a line headed by its entry.
UniProt Q9BX68: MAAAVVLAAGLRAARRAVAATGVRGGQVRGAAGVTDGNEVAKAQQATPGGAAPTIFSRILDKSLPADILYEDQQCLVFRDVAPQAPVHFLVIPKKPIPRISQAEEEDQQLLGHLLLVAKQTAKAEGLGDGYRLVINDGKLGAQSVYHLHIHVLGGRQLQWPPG
UniProt P54652, whole entry, looked up: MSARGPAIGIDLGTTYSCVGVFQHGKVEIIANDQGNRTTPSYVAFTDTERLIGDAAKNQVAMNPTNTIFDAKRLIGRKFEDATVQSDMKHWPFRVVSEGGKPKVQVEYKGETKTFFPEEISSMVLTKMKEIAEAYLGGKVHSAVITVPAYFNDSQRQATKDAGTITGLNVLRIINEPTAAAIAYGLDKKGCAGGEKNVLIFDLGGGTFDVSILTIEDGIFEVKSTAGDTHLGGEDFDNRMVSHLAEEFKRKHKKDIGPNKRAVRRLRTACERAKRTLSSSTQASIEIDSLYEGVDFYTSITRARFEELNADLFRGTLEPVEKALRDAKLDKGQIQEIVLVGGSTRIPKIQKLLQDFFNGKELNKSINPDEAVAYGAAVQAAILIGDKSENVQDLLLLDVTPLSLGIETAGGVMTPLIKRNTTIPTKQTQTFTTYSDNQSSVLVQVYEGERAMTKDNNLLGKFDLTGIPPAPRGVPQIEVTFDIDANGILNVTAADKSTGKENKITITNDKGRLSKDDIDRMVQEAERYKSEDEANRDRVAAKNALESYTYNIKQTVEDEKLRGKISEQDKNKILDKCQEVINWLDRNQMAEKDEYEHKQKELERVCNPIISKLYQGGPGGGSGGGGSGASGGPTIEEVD
UniProt P30519: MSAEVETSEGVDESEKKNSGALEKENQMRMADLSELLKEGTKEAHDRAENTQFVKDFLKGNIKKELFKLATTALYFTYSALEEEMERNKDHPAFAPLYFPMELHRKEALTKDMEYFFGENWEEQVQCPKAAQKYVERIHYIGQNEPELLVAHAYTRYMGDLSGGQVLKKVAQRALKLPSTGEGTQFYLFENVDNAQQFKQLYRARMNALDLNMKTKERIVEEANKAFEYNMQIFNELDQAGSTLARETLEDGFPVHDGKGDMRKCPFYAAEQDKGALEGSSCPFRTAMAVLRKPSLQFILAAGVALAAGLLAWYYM
UniProt Q9Y241: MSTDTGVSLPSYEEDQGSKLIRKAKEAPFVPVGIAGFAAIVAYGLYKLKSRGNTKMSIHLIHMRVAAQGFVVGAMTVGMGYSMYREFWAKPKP
UniProt H0YH80: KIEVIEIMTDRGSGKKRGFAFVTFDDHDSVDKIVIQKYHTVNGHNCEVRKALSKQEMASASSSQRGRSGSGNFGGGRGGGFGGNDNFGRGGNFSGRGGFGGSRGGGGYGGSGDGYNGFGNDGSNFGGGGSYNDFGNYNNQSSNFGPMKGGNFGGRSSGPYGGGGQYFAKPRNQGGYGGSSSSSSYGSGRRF
UniProt Q86VS8: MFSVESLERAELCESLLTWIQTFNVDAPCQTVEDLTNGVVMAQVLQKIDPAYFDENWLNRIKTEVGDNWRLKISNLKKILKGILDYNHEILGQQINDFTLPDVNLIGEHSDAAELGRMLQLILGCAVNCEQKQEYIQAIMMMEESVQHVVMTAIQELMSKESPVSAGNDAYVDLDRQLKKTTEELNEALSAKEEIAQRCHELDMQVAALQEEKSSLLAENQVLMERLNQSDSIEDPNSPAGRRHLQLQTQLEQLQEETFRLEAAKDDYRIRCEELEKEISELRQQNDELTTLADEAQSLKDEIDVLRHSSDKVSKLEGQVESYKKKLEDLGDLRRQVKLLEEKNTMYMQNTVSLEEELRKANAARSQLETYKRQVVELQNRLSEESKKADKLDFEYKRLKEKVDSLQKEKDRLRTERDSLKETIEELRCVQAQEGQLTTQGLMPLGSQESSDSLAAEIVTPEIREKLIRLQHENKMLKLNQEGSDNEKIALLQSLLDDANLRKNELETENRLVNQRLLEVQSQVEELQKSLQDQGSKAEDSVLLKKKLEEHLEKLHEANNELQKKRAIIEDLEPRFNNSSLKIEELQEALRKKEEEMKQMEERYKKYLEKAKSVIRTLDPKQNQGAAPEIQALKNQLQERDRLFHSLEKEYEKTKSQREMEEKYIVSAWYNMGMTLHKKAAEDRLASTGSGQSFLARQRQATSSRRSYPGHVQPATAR
UniProt P11142, whole entry, looked up: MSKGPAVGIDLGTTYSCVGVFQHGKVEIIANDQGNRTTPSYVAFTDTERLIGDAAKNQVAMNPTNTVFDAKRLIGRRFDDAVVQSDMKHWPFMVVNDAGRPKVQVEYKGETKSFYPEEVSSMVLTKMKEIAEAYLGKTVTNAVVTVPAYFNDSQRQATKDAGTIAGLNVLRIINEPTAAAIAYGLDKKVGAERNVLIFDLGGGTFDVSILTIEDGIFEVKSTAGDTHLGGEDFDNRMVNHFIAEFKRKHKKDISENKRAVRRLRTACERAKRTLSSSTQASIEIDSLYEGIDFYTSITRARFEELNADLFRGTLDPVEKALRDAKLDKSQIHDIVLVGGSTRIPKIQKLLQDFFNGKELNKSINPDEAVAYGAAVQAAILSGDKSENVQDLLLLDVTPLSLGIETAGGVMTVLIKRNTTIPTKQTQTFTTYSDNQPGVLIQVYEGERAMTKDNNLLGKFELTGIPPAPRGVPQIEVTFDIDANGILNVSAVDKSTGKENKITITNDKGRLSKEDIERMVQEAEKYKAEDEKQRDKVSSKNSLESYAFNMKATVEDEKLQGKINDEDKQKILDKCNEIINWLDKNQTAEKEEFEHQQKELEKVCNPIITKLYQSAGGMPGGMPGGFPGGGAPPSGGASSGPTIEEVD
UniProt Q5SSJ5: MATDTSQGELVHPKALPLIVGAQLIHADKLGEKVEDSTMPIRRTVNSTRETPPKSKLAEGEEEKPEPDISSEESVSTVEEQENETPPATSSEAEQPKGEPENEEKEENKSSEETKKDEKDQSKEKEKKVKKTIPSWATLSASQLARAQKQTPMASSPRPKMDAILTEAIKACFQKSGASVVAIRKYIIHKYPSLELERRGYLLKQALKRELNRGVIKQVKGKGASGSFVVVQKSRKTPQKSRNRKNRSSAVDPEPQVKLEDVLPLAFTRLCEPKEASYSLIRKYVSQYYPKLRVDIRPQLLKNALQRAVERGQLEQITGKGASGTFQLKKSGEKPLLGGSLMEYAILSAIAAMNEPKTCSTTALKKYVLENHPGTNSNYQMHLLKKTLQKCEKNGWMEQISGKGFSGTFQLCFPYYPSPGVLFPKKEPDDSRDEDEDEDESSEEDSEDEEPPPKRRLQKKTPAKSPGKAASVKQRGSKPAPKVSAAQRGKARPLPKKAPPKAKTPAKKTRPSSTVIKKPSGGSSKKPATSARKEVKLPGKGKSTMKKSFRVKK
UniProt Q53GQ0: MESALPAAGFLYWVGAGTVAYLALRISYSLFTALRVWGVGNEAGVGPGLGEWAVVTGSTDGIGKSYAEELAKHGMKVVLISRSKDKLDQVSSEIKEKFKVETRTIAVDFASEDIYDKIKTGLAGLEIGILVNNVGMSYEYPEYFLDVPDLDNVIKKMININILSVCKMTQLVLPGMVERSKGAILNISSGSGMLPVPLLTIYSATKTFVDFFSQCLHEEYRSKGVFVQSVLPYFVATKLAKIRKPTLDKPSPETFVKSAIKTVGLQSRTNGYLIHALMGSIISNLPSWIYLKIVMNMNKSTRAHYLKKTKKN
UniProt Q9UMF0: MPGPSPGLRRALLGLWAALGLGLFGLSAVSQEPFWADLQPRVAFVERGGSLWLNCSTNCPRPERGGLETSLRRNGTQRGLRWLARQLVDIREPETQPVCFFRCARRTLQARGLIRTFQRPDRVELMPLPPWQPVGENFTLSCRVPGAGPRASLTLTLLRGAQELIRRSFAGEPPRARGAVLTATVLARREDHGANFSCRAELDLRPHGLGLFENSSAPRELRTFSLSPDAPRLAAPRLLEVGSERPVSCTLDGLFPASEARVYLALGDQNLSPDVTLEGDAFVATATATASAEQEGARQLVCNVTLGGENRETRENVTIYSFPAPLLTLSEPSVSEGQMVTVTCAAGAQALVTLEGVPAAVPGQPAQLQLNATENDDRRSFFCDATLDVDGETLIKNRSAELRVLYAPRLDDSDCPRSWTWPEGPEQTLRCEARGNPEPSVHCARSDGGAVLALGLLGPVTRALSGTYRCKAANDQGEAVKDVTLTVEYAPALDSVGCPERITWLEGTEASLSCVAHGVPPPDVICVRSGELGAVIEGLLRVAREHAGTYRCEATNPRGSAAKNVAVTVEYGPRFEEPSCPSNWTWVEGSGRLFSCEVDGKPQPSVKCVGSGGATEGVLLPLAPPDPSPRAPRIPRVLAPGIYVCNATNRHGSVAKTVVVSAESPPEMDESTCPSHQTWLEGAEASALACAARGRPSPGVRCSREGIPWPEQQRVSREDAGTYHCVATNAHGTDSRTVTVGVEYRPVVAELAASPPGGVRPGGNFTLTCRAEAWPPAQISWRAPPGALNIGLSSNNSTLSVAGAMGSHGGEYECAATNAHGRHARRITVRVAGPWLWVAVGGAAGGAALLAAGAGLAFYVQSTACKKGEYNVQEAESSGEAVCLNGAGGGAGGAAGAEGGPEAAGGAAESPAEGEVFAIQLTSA

What was measured:
Experiment in all cases: log2 fold change, soluble protein after heating vs DMSO (PISA); higher = thermal stabilisation; K562 cells, 10 uM, 30 min; active = over 0.2 and 3.5 SD of the protein, either way, in both replicates (recomputed)
[1] = compound: CC1=C(C=C(C=C1)NC(=O)C2=CC(=CC=C2)C(C)(C)C#N)NC3=CC4=C(C=C3)N=CN(C4=O)C
Summary of the method: (§1)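 K562 cells at 2×10^6 cells/mL were treated for 30 min with 10 μM compound, and aliquots were heated for 3 min over 48°C-58°C before pooling. Extraction used PBS with 0.5% NP-40 at 4°C, and soluble protein was the supernatant after 21,000xg for 90 min, measured by TMTpro 16plex LC-MS/MS with channel sums equalised. Thermal stability values, relative to control samples and from duplicates, are log2 fold changes.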

[2] = compound: CC1=C(C=C(C=C1)NC(=O)C2=CC(=CC=C2)N(C)C)NC(=O)C3=CC=C(C=C3)O
Summary of the method: as §1

[3] = compound: CC1=CC=C(C=C1)SC2=C3C=C(SC3=CN=C2)C(=O)N
Summary of the method: as §1

[4] = compound: CC1=NC(=CC=C1)C2=C(N=C(N2)C(C)(C)C)C3=CC4=NC=CN=C4C=C3
Summary of the method: as §1

vemurafenib = compound: CCCS(=O)(=O)Nc1ccc(F)c(C(=O)c2c[nH]c3ncc(-c4ccc(Cl)cc4)cc23)c1F [vemurafenib]
Summary of the method: as §1

[5] = compound: CCCS(=O)(=O)Nc1ccc(F)c(C(=O)c2c[nH]c3ncc(Cl)cc23)c1F
Summary of the method: as §1

[6] = compound: CCCc1cc(C)[nH]c(=O)c1CNC(=O)c1cc(-c2ccnc(N3CCN(C)CC3)c2)cc2c1cnn2C(C)C
Summary of the method: as §1

givinostat = compound: CCN(CC)Cc1ccc2cc(COC(=O)Nc3ccc(C(=O)NO)cc3)ccc2c1 [givinostat]
Summary of the method: as §1

barasertib = compound: CCN(CCCOc1ccc2c(Nc3cc(CC(=O)Nc4cccc(F)c4)[nH]n3)ncnc2c1)CCOP(=O)(O)O [barasertib]
Summary of the method: as §1

[7] = compound: CC[C@@H]1C(=O)N(C)c2cnc(Nc3ccc(C(=O)NC4CCN(C)CC4)cc3OC)nc2N1C1CCCC1
Summary of the method: as §1

volasertib = compound: CC[C@@H]1C(=O)N(C)c2cnc(Nc3ccc(C(=O)N[C@H]4CC[C@H](N5CCN(CC6CC6)CC5)CC4)cc3OC)nc2N1C(C)C [volasertib]
Summary of the method: as §1

[8] = compound: CC[C@H](C)N1C=C(C2=C(C=C(C=C21)C3=CN=C(C=C3)N4CCNCC4)C(=O)NCC5=C(C=C(NC5=O)C)C)C
Summary of the method: as §1

[9] = compound: CCn1c(C(=O)N(C2CC2)C2CC2)cc2c3c(ncn3C)c(Nc3cc(C)n(C)n3)nc21
Summary of the method: as §1

[10] = compound: CCn1cc(-c2ccnc3[nH]c(-c4cccc(CN(C)C)c4)cc23)c(-c2ccc(NC(=O)N(C)C)cc2)n1
Summary of the method: as §1

[11] = compound: CN(C)CC(=O)Nc1ccc2[nH]c(=O)c3ccccc3c2c1
Summary of the method: as §1

rosiglitazone = compound: CN(CCOC1=CC=C(C=C1)C[C@H]2C(=O)NC(=O)S2)C3=CC=CC=N3 (racemic) [rosiglitazone]
Summary of the method: as §1

[12] = compound: CN1C2=C(C3=C1C(=O)N(N=C3)CC4=CC(=CC=C4)N)SC(=C2)S(=O)C
Summary of the method: as §1

[13] = compound: CN1CCC(CNc2ccc3ncc(-c4cccc(OC(F)(F)F)c4)n3n2)CC1
Summary of the method: as §1

Nexturastat A = compound: CCCCN(Cc1ccc(C(=O)NO)cc1)C(=O)Nc1ccccc1 [Nexturastat A]
Summary of the method: as §1

epoxomicin = compound: CC[C@H](C)[C@@H](C(=O)N[C@@H]([C@@H](C)O)C(=O)N[C@@H](CC(C)C)C(=O)[C@]1(CO1)C)NC(=O)[C@H]([C@@H](C)CC)N(C)C(=O)C [epoxomicin]
Summary of the method: as §1

Measured: log2 fold change

HINT2 (UniProt Q9BX68)
inactive: [1] 0.081 | [2] -0.066 | [3] -0.008 | [4] 0.153 | vemurafenib 0.045 | [5] -0.035 | [6] -0.025 | givinostat -0.014 | barasertib 0.026 | [7] 0.065 | volasertib -0.001 | [8] -0.054 | [9] 0.015 | [10] -0.076 | [11] 0.178 | rosiglitazone -0.015 | [12] -0.089 | [13] 0.115

HSPA2 (UniProt P54652)
inactive: [1] -0.109 | [2] 0.046 | [4] -0.039 | [6] 0.057 | givinostat 0.13 | barasertib -0.004 | [8] -0.014

HPCAL1 (UniProt P37235)
inactive: [1] -0.022 | [2] 0.012 | [3] 0.048 | [4] 0.032 | Nexturastat A -0.092 | vemurafenib -0.017 | [5] 0.005 | [6] -0.076 | givinostat -0.041 | barasertib 0.019 | [7] -0.076 | volasertib -0.065 | [8] -0.028 | epoxomicin 0.048 | [10] 0.039 | [11] 0.019 | [12] -0.029 | [13] -0.032

HMOX2 (UniProt P30519)
inactive: [1] 0 | [2] -0.06 | [3] 0.036 | [4] -0.019 | Nexturastat A -0.023 | vemurafenib 0.034 | [5] 0.012 | [6] 0.097 | givinostat 0.015 | barasertib 0.042 | [7] -0.015 | [8] 0.074 | epoxomicin 0.009 | [10] -0.069 | [11] 0.008 | [12] 0.011 | [13] 0.054
active: volasertib -0.251

HIGD1A isoform 2 (UniProt Q9Y241)
inactive: [1] -0.054 | [2] 0.094 | [4] 0.036 | [6] 0.052 | barasertib 0.085 | [8] 0.102 | rosiglitazone -0.057

HNRNPA1 (UniProt H0YH80)
inactive: [1] -0.065 | [2] 0.074 | [4] -0.174 | Nexturastat A 0.384 | vemurafenib -0.21 | [6] 0.116 | barasertib -0.177 | [7] 0.289 | [8] -0.103 | epoxomicin -0.386 | [10] 0.4 | [11] -0.087 | rosiglitazone -0.313 | [13] 0.288

HOOK3 (UniProt Q86VS8)
active: volasertib -0.395 | [13] -0.358
inactive: [1] -0.024 | [2] -0.023 | [3] -0.014 | [4] -0.039 | Nexturastat A 0.034 | vemurafenib -0.014 | [5] -0.001 | [6] -0.026 | givinostat 0.091 | barasertib 0.008 | [7] -0.151 | [8] 0.034 | epoxomicin 0.004 | [10] -0.017 | [11] 0.005 | [12] 0.031

HSPA8 (UniProt P11142)
inactive: [1] 0.021 | [2] 0.005 | [3] -0.025 | [4] 0.011 | Nexturastat A -0.011 | vemurafenib -0.008 | [5] -0.02 | [6] 0.04 | givinostat -0.02 | barasertib -0.005 | [7] 0.001 | volasertib 0.113 | [8] -0.007 | epoxomicin 0.008 | [10] -0.002 | [11] -0.037 | [12] -0.034 | [13] 0.079

HP1BP3 (UniProt Q5SSJ5)
inactive: [1] 0.03 | [2] -0.026 | [3] -0.025 | [4] 0.017 | Nexturastat A 0.108 | vemurafenib -0.014 | [5] 0.018 | [6] -0.001 | givinostat 0.031 | barasertib -0.129 | [7] 0.122 | volasertib 0.054 | [8] -0.11 | epoxomicin -0.016 | [10] 0.013 | [11] 0.046 | [12] 0.126 | [13] 0.038

HSD17B12 (UniProt Q53GQ0)
inactive: [1] 0.094 | [2] 0.032 | [3] 0 | [4] 0.022 | Nexturastat A -0.111 | vemurafenib -0.006 | [5] -0.01 | [6] -0.141 | givinostat -0.018 | barasertib -0.04 | [7] -0.046 | volasertib -0.183 | [8] 0 | epoxomicin -0.013 | [10] -0.104 | [11] 0.01 | [12] -0.039 | [13] 0.037

ICAM5 (UniProt Q9UMF0)
inactive: [1] -0.002 | [2] 0.069 | [4] -0.079 | Nexturastat A 0.113 | vemurafenib 0.075 | [6] -0.08 | givinostat 0.098 | barasertib 0.087 | [7] -0.033 | [8] 0.032 | epoxomicin 0.049 | [9] -0.062 | [11] -0.036 | rosiglitazone 0.073 | [12] -0.068
